{"source": "the supplement of paper PMC12889115", "tested_on": "Salmonella enterica serovar Typhimurium SL1344", "assay": "bacterial growth OD600 after 18 h with compound and polymyxin B; higher = more bacterial growth (less inhibition)", "settings": "50 µM, Mueller-Hinton broth", "note": "This is one part of the list. These are raw signals, not scaled to a control.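 Primary screen: polymyxin B was added at a level permeabilizing Salmonella outer membranes while sparing inner membranes. DMSO wells, both with and without polymyxin B, established maximum growth. Plate-to-plate variation meant each plate was ranked on its own, and the lowest-OD600 compounds were selected as hits.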", "data": [{"compound": "OCCC1CN(Cc2cccc(O)c2)CCN1Cc1ccccc1F", "note": "(stereo not given)", "values": [{"measurement": "bacterial growth OD600", "setting": "polymyxin B 1 µg/mL", "result": 0.938}]}, {"compound": "CCOC(=O)C1(CCCc2ccccc2)CCCN(C(=O)CCn2cccn2)C1", "note": "(stereo not given)", "values": [{"measurement": "bacterial growth OD600", "setting": "polymyxin B 1 µg/mL", "result": 0.917}]}, {"compound": "CCN(CC)CCN(C)C(=O)c1ccc(OC)c(OC2CCN(C(C)C)CC2)c1", "values": [{"measurement": "bacterial growth OD600", "setting": "polymyxin B 1 µg/mL", "result": 1.16}]}, {"compound": "COCC(=O)Nc1cc(C(=O)N2CCN(C)C(c3ccccc3)C2)cc2nc(-c3cccnc3)n(C)c12", "note": "(stereo not given)", "values": [{"measurement": "bacterial growth OD600", "setting": "polymyxin B 0.75 µg/mL", "result": 0.896}]}, {"compound": "COc1ccc(CN2C(=O)O[C@@H]3CN(C4CCCC4)C[C@@H]32)cc1OC", "values": [{"measurement": "bacterial growth OD600", "setting": "polymyxin B 1 µg/mL", "result": 1.04}]}, {"compound": "O=C(Nc1ccc(N2CCC(NC(c3ccncc3)c3ccc(Cl)cc3)CC2)cc1)C1CCCC1", "note": "(stereo not given)", "values": [{"measurement": "bacterial growth OD600", "setting": "polymyxin B 0.75 µg/mL", "result": 0.007}]}, {"compound": "COc1ccc(C(=O)N2CCC3(CC2)c2ccccc2[C@@H](NC(=O)c2ccncc2)[C@@H]3OC)cc1F", "values": [{"measurement": "bacterial growth OD600", "setting": "polymyxin B 0.75 µg/mL", "result": 0.843}]}, {"compound": "O=C(COc1ccc(Cl)cc1)N1CCC(n2c(C3CCCO3)nc3cc(C(F)(F)F)ccc32)CC1", "note": "(stereo not given)", "values": [{"measurement": "bacterial growth OD600", "setting": "polymyxin B 0.75 µg/mL", "result": 0.723}]}, {"compound": "CCN(Cc1ccc(COC)o1)CC1CCCN(CCc2cccc(OC)c2)C1", "note": "(stereo not given)", "values": [{"measurement": "bacterial growth OD600", "setting": "polymyxin B 0.75 µg/mL", "result": 0.999}]}, {"compound": "O=C(NCc1sc2ccccc2c1Cl)C1CCC(=O)N(C2CC2)C1", "note": "(stereo not given)", "values": [{"measurement": "bacterial growth OD600", "setting": "polymyxin B 1 µg/mL", "result": 1.05}]}, {"compound": "CSc1ccc(CN2CCC(n3nccc3NC(=O)C(C)(C)C)CC2)cc1", "values": [{"measurement": "bacterial growth OD600", "setting": "polymyxin B 0.75 µg/mL", "result": 0.818}]}, {"compound": "COc1cc(CN2Cc3cc(Cl)ccc3OC(C)C2)cc2c1OCO2", "note": "(stereo not given)", "values": [{"measurement": "bacterial growth OD600", "setting": "polymyxin B 0.75 µg/mL", "result": 0}]}, {"compound": "COc1cc(CNC2CCN(C)CC2)ccc1OCC(O)CN(C)C(C)C", "note": "(stereo not given)", "values": [{"measurement": "bacterial growth OD600", "setting": "polymyxin B 1 µg/mL", "result": 1.33}]}, {"compound": "O=C(NC1CC(=O)N(Cc2ccccc2Cl)C1)c1cc2ccccc2o1", "note": "(stereo not given)", "values": [{"measurement": "bacterial growth OD600", "setting": "polymyxin B 1 µg/mL", "result": 0.793}]}, {"compound": "C=CCCC(=O)N1CCCC(N2CCN(c3cccc(C(F)(F)F)c3)CC2)C1", "note": "(stereo not given)", "values": [{"measurement": "bacterial growth OD600", "setting": "polymyxin B 1 µg/mL", "result": 0.902}]}, {"compound": "O=C(c1ccc[n+]([O-])c1)N1CCC2(CCCN(CC3CCCCC3)C2)C1", "note": "(stereo not given)", "values": [{"measurement": "bacterial growth OD600", "setting": "polymyxin B 0.75 µg/mL", "result": 0.863}]}, {"compound": "Cc1ncoc1C(=O)N1CCC(CCC(=O)NC2CCN(Cc3ccccc3)C2)CC1", "note": "(stereo not given)", "values": [{"measurement": "bacterial growth OD600", "setting": "polymyxin B 1 µg/mL", "result": 0.942}]}, {"compound": "Cc1ccc2c(CC(=O)NCCN3Cc4ccccc4OC(c4ccsc4)C3)cc(=O)oc2c1", "note": "(stereo not given)", "values": [{"measurement": "bacterial growth OD600", "setting": "polymyxin B 0.75 µg/mL", "result": 0.737}]}, {"compound": "COc1ccc(OC)c(C2CCN(c3nncc(-c4cc(C)oc4C)n3)C2)c1", "note": "(stereo not given)", "values": [{"measurement": "bacterial growth OD600", "setting": "polymyxin B 0.75 µg/mL", "result": 0.914}]}, {"compound": "O=C(c1csnn1)N1CCc2[nH]nc(-c3ccc(Cl)cc3)c2C1", "values": [{"measurement": "bacterial growth OD600", "setting": "polymyxin B 0.75 µg/mL", "result": 0}]}, {"compound": "COCCN(C)Cc1cn(-c2ccccc2)nc1-c1cccc(OC)c1", "values": [{"measurement": "bacterial growth OD600", "setting": "polymyxin B 1 µg/mL", "result": 0.831}]}, {"compound": "COC(=O)C1CCCCN1Cc1ccc2c(c1)CN(C(=O)c1ccc3[nH]ccc3c1)CCO2", "note": "(stereo not given)", "values": [{"measurement": "bacterial growth OD600", "setting": "polymyxin B 0.75 µg/mL", "result": 0.823}]}, {"compound": "COc1ccc(CN2C(=O)O[C@@H]3CN(Cc4cccc(F)c4)C[C@@H]32)cc1OC", "values": [{"measurement": "bacterial growth OD600", "setting": "polymyxin B 0.75 µg/mL", "result": 0.777}]}, {"compound": "COC(=O)CCCNC(=O)c1ccccc1OC1CCN(C(=O)c2cccnc2)CC1", "values": [{"measurement": "bacterial growth OD600", "setting": "polymyxin B 1 µg/mL", "result": 1.08}]}, {"compound": "CN(Cc1ccccn1)C(=O)c1csc2nc(-c3cccc(C(F)(F)F)c3)cn12", "values": [{"measurement": "bacterial growth OD600", "setting": "polymyxin B 0.75 µg/mL", "result": 0.624}]}, {"compound": "O=C(CCc1ccccc1)Nc1ccc(N2CCC(NCC3CCCN(c4ncccn4)C3)CC2)cc1", "note": "(stereo not given)", "values": [{"measurement": "bacterial growth OD600", "setting": "polymyxin B 0.75 µg/mL", "result": 0.791}]}, {"compound": "CN(C)c1ccc([C@@H]2C[C@H]3CN(CCc4ccccc4)C(=O)[C@]34CCCN24)cc1", "values": [{"measurement": "bacterial growth OD600", "setting": "polymyxin B 1 µg/mL", "result": 1.11}]}, {"compound": "COC(=O)C1CCN(C(=O)c2csc3nc(-c4ccccc4C)cn23)CC1", "values": [{"measurement": "bacterial growth OD600", "setting": "polymyxin B 1 µg/mL", "result": 1.1}]}, {"compound": "COCC1CCCN(Cc2ccc3c(c2)CN(C(=O)c2cccc(-c4ccc(F)cc4)c2)CCO3)C1", "note": "(stereo not given)", "values": [{"measurement": "bacterial growth OD600", "setting": "polymyxin B 0.75 µg/mL", "result": 0.007}]}, {"compound": "Cc1nc(N2CCC(C(=O)NCC3CC4C=CC3C43CC3)CC2)nc2cc(S(C)(=O)=O)ccc12", "note": "(stereo not given)", "values": [{"measurement": "bacterial growth OD600", "setting": "polymyxin B 0.75 µg/mL", "result": 0.889}]}]}
